Reference: PubChem BioAssay AID1053208 (Peter MacCallum Cancer Centre, 2014)

- Assay: 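Synthetic lethal interactions between gene loss and doxorubicin in osteosarcoma cells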 (primary screen)
- Cells: mouse osteosarcoma cells, early-passage culture from an engineered mouse model of fibroblastic bone tumour
- Reagents: siRNA pool against mouse genes, 40 nM
- Time to read-out: about 120 h (48 h before drug, then 72 h with drug)
- Challenge: doxorubicin 100 nM for 72 h, roughly 30-40% inhibitory dose
- Read-out: 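Luminescent ATP signal taken as viability with or without 100 nM doxorubicin for 72 h; mean of two wells set against non-targeting siRNA and turned into robust z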
- Direction: viability z-score with doxorubicin: higher = more viable cells under doxorubicin; viability z-score without drug: higher = more viable cells with knock-down alone
- Hit rule: 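Called active if knock-down leaves viability unchanged without drug (z within -2 to 2) but lowers it with doxorubicin (z at or under -2)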
This is an unselected part of about 17,000 reagents tested. Of all reagents, 788 (4.7%) were called active. 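Calls rest on z-score classes alone; an extra cut-off of viability at most 70% of control was not applied to them.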 Entries without a mark were called inactive. Reagents against one gene are numbered here. Further read-outs or replicates are left out here.

Or5b113: combined z-score class = no change with or without drug; viability z-score with doxorubicin = -0.45; viability z-score without drug = 0.51
Nfe2l2: combined z-score class = high cell count without drug only; viability z-score with doxorubicin = 1.8; viability z-score without drug = 2.19
Pdlim3: combined z-score class = no change with or without drug; viability z-score with doxorubicin = -1.35; viability z-score without drug = -1.01
Fen1: combined z-score class = no change with or without drug; viability z-score with doxorubicin = -0.45; viability z-score without drug = 0.51
Scn11a: combined z-score class = no change with or without drug; viability z-score with doxorubicin = -0.22; viability z-score without drug = -1.52
Rasal2 #1: combined z-score class = no change with or without drug; viability z-score with doxorubicin = -0.45; viability z-score without drug = -0.84
Rasal2 #2: combined z-score class = no change with or without drug; viability z-score with doxorubicin = -1.12; viability z-score without drug = 0.84
Tnfrsf10b: combined z-score class = no change with or without drug; viability z-score with doxorubicin = -0.45; viability z-score without drug = 0.84
Top3a: combined z-score class = no change with or without drug; viability z-score with doxorubicin = 0.45; viability z-score without drug = 0.34
Insl6: combined z-score class = high cell count with doxorubicin only; viability z-score with doxorubicin = 2.59; viability z-score without drug = 1.85
Agfg1: combined z-score class = no change with or without drug; viability z-score with doxorubicin = -0.22; viability z-score without drug = -0.17
Zfyve16: combined z-score class = no change with or without drug; viability z-score with doxorubicin = -0.34; viability z-score without drug = 0.17
Zbtb35: combined z-score class = no change with or without drug; viability z-score with doxorubicin = 1.12; viability z-score without drug = 0.17
Ffar4: combined z-score class = no change with or without drug; viability z-score with doxorubicin = 0.9; viability z-score without drug = 1.18
Pcdh18: combined z-score class = no change with or without drug; viability z-score with doxorubicin = 1.24; viability z-score without drug = 0.17

Not a retest: 3 of the entries above.
Nfe2l2: combined z-score class = high cell count without drug only; viability z-score with doxorubicin = 1.8; viability z-score without drug = 2.19
Pdlim3: combined z-score class = no change with or without drug; viability z-score with doxorubicin = -1.35; viability z-score without drug = -1.01
Fen1: combined z-score class = no change with or without drug; viability z-score with doxorubicin = -0.45; viability z-score without drug = 0.51

The list goes on:
Dbf4: combined z-score class = no change with or without drug; viability z-score with doxorubicin = 0.45; viability z-score without drug = 0.51
Dglucy: combined z-score class = no change with or without drug; viability z-score with doxorubicin = 0; viability z-score without drug = -0.84
Slc39a3: combined z-score class = no change with or without drug; viability z-score with doxorubicin = 0; viability z-score without drug = 0.67
Tmem45b: combined z-score class = no change with or without drug; viability z-score with doxorubicin = 0.45; viability z-score without drug = 0.34
Hrg: combined z-score class = no change with or without drug; viability z-score with doxorubicin = -0.45; viability z-score without drug = -0.51
Chrna6: combined z-score class = no change with or without drug; viability z-score with doxorubicin = -0.22; viability z-score without drug = -0.17
Gtf2e2: combined z-score class = no change with or without drug; viability z-score with doxorubicin = 0.9; viability z-score without drug = -0.67
Cnot8: combined z-score class = no change with or without drug; viability z-score with doxorubicin = 0.45; viability z-score without drug = 0
Atp5mc1: combined z-score class = no change with or without drug; viability z-score with doxorubicin = -0.56; viability z-score without drug = -1.35
Spns1: combined z-score class = no change with or without drug; viability z-score with doxorubicin = 0.34; viability z-score without drug = 0.17
Alg6: combined z-score class = no change with or without drug; viability z-score with doxorubicin = -0.22; viability z-score without drug = -0.51
Notch1: combined z-score class = no change with or without drug; viability z-score with doxorubicin = 1.57; viability z-score without drug = -0.17
Wnt3a: combined z-score class = no change with or without drug; viability z-score with doxorubicin = 0.22; viability z-score without drug = 1.35
